The source of these data is PubChem BioAssay AID445 (National Center for Advancing Translational Sciences (NCATS), 2006).

Where “and” joins values, the source holds several entries; their conditions need not be identical. Equal entries are not always repeated. The list shows a part of the results. Further columns of the screen follow, without active or inactive calls. Most of these compounds were active or inconclusive in the main read-out, so they are no random draw. Words in brackets tell the shape of the fitted curve; partial curves, single points and poor fits give uncertain potencies.

The assay in a line: IkB Signaling. The conditions noted are these: ABC-DLBCL IkBa-CBG/CBR dual luciferase ratio (green luciferase fused to IkBa over red control in OCI-Ly3 lymphoma cells), 4 h. An outline of the steps:
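Luminescence ratio of IκBα-fused green versus native red beetle luciferase in OCI-Ly3 cells, 4 h post-doxycycline with compound; red signal alone, scaled from basal (0%) to zero light (-100%), flagged nonspecific or cytotoxic effects.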

Where [1] appears, read: measured here: control luc red channel unless noted.
Where [2] appears, read: measured here: IkB-luc green channel.
[3] abbreviates: measured here: control luc red channel.

On to `COc1cc(C2c3c(-c4ccccc4)n[nH]c3C(=O)N2c2ccccc2)ccc1O` (configuration not stated), for which the concentration at half-maximal activity (AC50) under setting [1] was 5.01 µM [falling, partial curve]. With `CSc1cccc(Nc2cc(C(=O)NCCCN(C)c3ccccc3)c3ccccc3n2)c1`, the AC50 under setting [1] is 0.251 µM [falling, partial curve, poor fit]. On the same count and under the same terms, for `COc1ccc(/C=C/C(=O)Nc2nc3n(n2)C(c2ccc(F)cc2)C=C(c2ccccc2)N3)cc1` (configuration not stated) the value was 20 µM [falling, single point]. Regarding `COc1ccc(NC(=O)C2C(=O)NC3(C)CC2c2ccccc2O3)cc1` (configuration not stated), the AC50 under setting [1] is 15.8 µM [falling, partial curve].

As to `COc1ccc(NC(=O)C2CCCN(S(=O)(=O)c3ccc(Br)s3)C2)cc1` (configuration not stated), the AC50 under setting [1] is 20 µM [falling, partial curve].

On to `CCc1ccc(CNC(=O)c2c(C)oc3ncnc(N4CCOCC4)c23)cc1`, for which the concentration at half-maximal activity (AC50) under setting [1] is 15.8 µM [falling, single point]. Turning to `COC(=O)c1cc(COc2ccc3oc(C)c(C(=O)OC)c3c2)c(C)o1`, the AC50 under setting [1] was 3.98 µM [falling, partial curve]. In the case of `CCOC(=O)Cc1nnc2c(Nc3ccc(Cl)cc3)nc3nonc3n12`, the AC50 reads like this: under setting [2], 3.16 µM [falling, full curve]; under setting [3], 7.94 µM [falling, full curve]. Turning to `O=C(NCCn1ccc2ccccc21)c1ccc(Cl)cc1`, under setting [1], the AC50 was 39.8 µM [falling, partial curve, poor fit]. In the case of `COc1ccccc1NC(=O)CSc1nc(-c2ccc(C(C)(C)C)cc2)c(C#N)c(=O)[nH]1`, the AC50 under setting [1] was 5.01 µM [falling, partial curve].

As for `Cc1cccc(N2CCN(CCNC(=O)Nc3ccc(Cl)cc3)CC2)c1C`, the half-maximal activity concentration (AC50) under setting [1] is 15.8 µM [falling, partial curve].

`COc1ccc(NC(=O)CN(c2cc(C)cc(C)c2)S(=O)(=O)c2c(C)noc2C)cc1OC`: under setting [1], the half-maximal activity concentration (AC50) was 12.6 µM [falling, partial curve]. The same measure, in the same setting: for `COc1ccc(OC)c(C2CC(=O)c3c([nH]c(C(=O)OC(C)C)c3C)C2)c1` (configuration not stated) the value was 5.01 µM [rising, partial curve] [measured here: IkB-luc green channel]; for `C[C@@]12CCC(=O)C=C1CC[C@@H]1[C@@H]2[C@H](O)C[C@]2(C)[C@@H]1CC[C@]2(O)C(=O)CO`, 50.1 nM [rising, full curve] [measured here: IkB-luc green channel] and 15.8 nM [rising, full curve] [measured here: IkB-luc green channel]; for `CCOC(=O)c1c(-c2cccs2)csc1NC(=O)CN1CC(C)OC(C)C1` (configuration not stated), 39.8 µM [falling, single point]. Same read-out and setting: for `CC1CCN(C(=O)c2cc(-c3ccc(Br)cc3)on2)CC1` the value was 0.0631 µM [falling, full curve]; for `COc1ccccc1-c1cc(C(=O)N2CCN(c3ccccc3OC)CC2)no1`, 0.501 µM [falling, full curve]. The same measure, in the same setting: in the case of `CCOc1ccc(CNS(=O)(=O)c2ccc3c(c2)CCCN3C(C)=O)cc1OC` it was 6.31 µM [rising, full curve]; in that of `CCOC(=O)C1CCCN(C(=O)c2nn(-c3ccc(C)cc3)c(=O)n(C)c2=O)C1` (configuration not stated), 1.58 µM [falling, full curve, poor fit]; in that of `COc1ccc2c(c1)c(N1CCCC1=O)c(C(=O)Nc1ccccc1C(F)(F)F)n2C`, 25.1 µM [falling, single point].

As for `COc1ccc(-c2noc(N3CCC(C(=O)N4CCN(c5cccc(C)c5C)CC4)CC3)n2)cc1`, the half-maximal activity concentration (AC50) under setting [1] was 39.8 µM [falling, single point]. Still for that read-out and setting: for `COc1cccc(CNC(=O)Cc2c(C(=O)O)c(C)cn2C)c1` the value was 1.58 µM [rising, full curve, poor fit]; for `COc1ccc(CC(=O)NCC(c2cccs2)S(=O)(=O)c2ccc(C)cc2)cc1` (configuration not stated), 2 µM [falling, partial curve].

Regarding `CC(=O)C1=C(O)C(=O)N(CCc2c[nH]c3ccccc23)C1c1ccco1` (configuration not stated), the half-maximal activity concentration (AC50) under setting [1] is 39.8 µM [rising, single point] [measured here: IkB-luc green channel]. Still for that read-out and setting: in the case of `CCOC(=O)c1c(C)n(-c2ccccc2)c2ccc(OC(=O)c3cccc(OC)c3OC)cc12` it was 0.316 µM [rising, full curve]; in that of `CCN(CC)C(=O)c1ccc(Nc2nnc(-c3ccc(C)c(S(=O)(=O)NC)c3)c3ccccc23)cc1`, 15.8 µM [falling, single point]. Consider `COc1ccc(CNC(=O)CCCN2C(=O)CSc3c2c(C)nn3-c2ccccc2)cc1`, for which the half-maximal activity concentration (AC50) under setting [1] is 15.8 µM [falling, single point]. For the compound `Cc1cccn2c(=O)c(C(=O)NCc3ccc(F)cc3)c(O)nc12`, the concentration at half-maximal activity (AC50) under setting [1] is 25.1 µM [falling, single point]. Still for that read-out and setting: in the case of `O=c1cc(-c2ccccc2)nc(SCc2nc(-c3ccccc3Cl)no2)[nH]1` it was 25.1 µM [falling, partial curve]. On to `CCCOc1cccc(C(=O)Nc2cccc3cccnc23)c1`, for which the AC50 under setting [1] is 39.8 µM [falling, single point]. Still for that read-out and setting: for `COc1ccc(-c2nc3ccc(NS(=O)(=O)c4ccc(C)cc4)cc3o2)cc1` the value was 31.6 µM [falling, partial curve].

For the compound `CC(C)OCCCNC(=O)c1ccc(CSc2nc3cccnc3n2Cc2ccccc2)cc1`, under setting [1], the AC50 was 31.6 µM [falling, single point]. Still for that read-out and setting: in the case of `O=C(OCc1cc(=O)n2nc(-c3cccs3)sc2n1)c1ccc(Cl)cc1` it was 12.6 µM [falling, partial curve]; in that of `CCC1=C(c2ccc(C)cc2)S(=O)(=O)N=C1N1CCC(C(=O)Nc2ccccc2F)CC1`, 25.1 µM [falling, single point].

As to `Cc1nc2sccn2c(=O)c1S(=O)(=O)Nc1ccc(N2CCOCC2)c(Cl)c1`, under setting [1], the AC50 was 1.26 µM [falling, partial curve]. For the compound `COC(=O)c1c(SCC(=O)Nc2cc(OC)cc(OC)c2)[nH]c2ccc(C)cc2c1=O`, under setting [1], the half-maximal activity concentration (AC50) was 10 µM [falling, partial curve]. The same measure, in the same setting: for `CC1(C)CC(=O)C=C(NCCN2CCN(C(=O)Nc3ccc(Cl)c(Cl)c3)CC2)C1` the value was 20 µM [falling, partial curve]; for `CCC1CCC(C(=O)NC(C(=O)Nc2cccc(OC)c2)C(C)C)CC1` (configuration not stated), 0.398 µM [falling, partial curve]; for `CCOC(=O)C1=C(c2ccccc2)NC(SC)=C(C#N)C1c1ccco1` (configuration not stated), 15.8 µM [falling, partial curve]. Take `CCc1ccc(C(=O)c2cn(CC(=O)Nc3ccc4c(c3)OCO4)c3ccc(OC)cc3c2=O)cc1`: under setting [1], the AC50 was 25.1 µM [falling, single point]. Turning to `O=C(CSc1nnc(-c2ccccc2Br)o1)N1CCc2ccccc2C1`, under setting [1], the AC50 was 25.1 µM [falling, partial curve].

For `CCC(NC(=O)c1ccccc1O)c1ccccc1` (configuration not stated), under setting [1], the half-maximal activity concentration (AC50) is 39.8 µM [falling, single point]. As for `OC(COc1ccc2cc(Br)ccc2c1)CN1CCN(c2ccccn2)CC1` (configuration not stated), the AC50 under setting [1] was 2 µM [falling, full curve, poor fit].

With `COc1ccc(Br)cc1CNC(=O)C1CCCN(S(C)(=O)=O)C1` (configuration not stated), the AC50 under setting [1] is 0.002 µM [falling, full curve]. The same measure, in the same setting: for `CNc1ncnc2c1cnn2-c1ccc(C)c(C)c1` the value was 39.8 µM [falling, partial curve]; for `COc1ccc(CCNc2nc(N3CCCCC3)nc(N3CCCCC3)n2)cc1OC`, 20 µM [falling, partial curve]. The same measure, in the same setting: for `COc1cc(NC(=O)c2cccc3c2C(=O)N(C2CCCCC2)C3)cc(OC)c1OC` the value was 12.6 µM [falling, partial curve]; for `Oc1ccccc1-c1nc(/C=C/c2ccccc2Cl)nn1-c1ccccc1`, 5.01 µM [falling, partial curve]. For the compound `Cc1cc(O)c2c(c1)C(=O)c1cc(O)cc(O)c1C2=O`, the AC50 was 39.8 µM [falling, single point] under setting [2] and 10 µM [falling, partial curve] under setting [3]. For `CCOC(=O)c1c(-c2ccccc2)oc2ccc(NS(=O)(=O)c3cc(C)c(C)cc3C)cc12`, the half-maximal activity concentration (AC50) under setting [1] was 39.8 µM [falling, partial curve, poor fit]. The same measure, in the same setting: for `O=C(CN1N=C(c2ccc(Cl)cc2)CCC1=O)NCCc1ccc(Cl)cc1` the value was 39.8 µM [falling, partial curve]; for `Cc1ccccc1NC(=O)c1ccc2c(c1)c(C)c(C)n2Cc1ccccc1`, 3.16 µM [rising, full curve]. Still for that read-out and setting: in the case of `COc1ccc(OC)c(CNC(=O)c2ccc(Sc3ccc(C)cc3)c(N)c2)c1` it was 31.6 µM [falling, single point]. `Cc1ccc(NC(=O)CN2C(=O)CCc3cc(S(=O)(=O)N4CCOCC4)ccc32)cc1F`: the concentration at half-maximal activity (AC50) under setting [1] was 10 µM [falling, partial curve]. As for `CCCc1nn2c(=O)cc(COC(=O)c3ccccc3NC(=O)COc3ccccc3F)nc2s1`, the concentration at half-maximal activity (AC50) under setting [1] is 15.8 µM [falling, partial curve]. On to `COc1ccc(NC(=O)c2oc3ccc(S(=O)(=O)N4CCCCC4)cc3c2C)cc1`, for which the AC50 under setting [1] is 3.16 µM [falling, partial curve].

`Cc1nc2c(C(=O)NCCCN(CC(C)C)CC(C)C)cnn2c(C)c1Cc1c(F)cccc1Cl`: the half-maximal activity concentration (AC50) under setting [1] is 31.6 µM [falling, single point]. The same measure, in the same setting: in the case of `CCCOC(=O)c1c(NC(=O)c2nc3ncccn3n2)sc(C(N)=O)c1C` it was 3.16 µM [rising, partial curve]; in that of `O=C1c2ccccc2NC(c2cnc3ccccc3n2)N1O` (configuration not stated), 0.794 µM [falling, partial curve]; in that of `COc1ccc(NC(=O)CSc2nc(-c3ccco3)cc(C(F)(F)F)n2)cc1OC`, 3.98 µM [falling, full curve].
